Measurements: the supplement of paper PMC10373366
The list shows a part of the results. Repeats are few or missing, and single values can be far off.

Key:
A2780 = assay: cell growth inhibition ratio vs untreated control (CCK8); higher = stronger inhibition of cell viability; conditions: 10 µM; 48 h
Procedure: (§1)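 Natural product library (Topscience) screened at 10 µM final concentration for 48 h on ovarian cancer A2780 cells and patient-derived ovarian cancer cells (PDC) in 96-well plates; viability read by CCK8 and reported as inhibition ratio (%) relative to untreated control. Single-dose primary screen.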

[1] = system: patient-derived ovarian cancer cells (PDC); assay: as above; conditions: 10 µM; 48 h
Procedure: as §1

| SMILES | cell growth inhibition ratio (A2780) [%] | cell growth inhibition ratio [1] [%] |
| --- | --- | --- |
| C[C@H]1O[C@@H](O[C@H]2CC[C@@]3(C)[C@@H](CC[C@]4(C)[C@@H]3C=C[C@]35OC[C@@]6(CCC(C)(C)C[C@H]63)[C@@H](O)C[C@]54C)[C@]2(C)CO)[C@H](O)[C@@H](O[C@@H]2O[C@H](CO)[C@@H](O)[C@H](O)[C@H]2O)[C@H]1O [Saikosaponin A] | 9.43 | -0.0149 |
| COc1cc2c(cc1O)CC[n+]1cc3c(OC)c(OC)ccc3cc1-2 [Jatrorrhizine] | -19.2 | -22.3 |
| OC[C@@H](O)[C@@H](O)[C@H](O)[C@H](O)CO [D-Mannitol] | 11.8 | 1.14 |
| Nc1ncnc2c1ncn2[C@@H]1O[C@H](COP(=O)(O)OP(=O)(O)OP(=O)(O)O)[C@@H](O)[C@H]1O [Adenosine disodium triphosphate] | 7.47 | -10.6 |
| O=c1c(-c2ccc(O)cc2)coc2cc(O[C@@H]3O[C@H](CO)[C@@H](O)[C@H](O)[C@H]3O)ccc12 [Daidzin] | 14.2 | 2.16 |
| O=c1c(-c2ccc(O)cc2)coc2c([C@@H]3O[C@H](CO)[C@@H](O)[C@H](O)[C@H]3O)c(O)ccc12 [Puerarin (Kakonein)] | 4.98 | -12.2 |
| O=C(O)/C=C/CCCCCCCO [10-Hydroxy-2-decenoic acid] | 16.3 | 5.06 |
| OC[C@H]1OC(O)[C@@H](O)[C@@H](O)[C@@H]1O (some centres undefined) [Mannose] | 12.2 | 4.47 |
| CC(C)(O)CC[C@@H](O)[C@](C)(O)[C@H]1CC[C@@]2(O)C3=CC(=O)[C@@H]4C[C@@H](O)[C@@H](O)C[C@]4(C)[C@H]3CC[C@]12C [Ecdysterone] | 5.48 | -10.5 |
| COc1cc2ccc(=O)oc2cc1O [Scopoletin] | 8.38 | 13.2 |
| CC(C)=CCC/C(C)=C/CC/C(C)=C/CC/C(C)=C/CC1=C(C)C(=O)c2ccccc2C1=O [Menatetrenone] | 10.3 | 3.04 |
| COc1cc(OC)c2ccc(=O)oc2c1 [Citropten] | 10.9 | -15.6 |
| C=C(C)[C@@H]1CC[C@]2(C(=O)O[C@@H]3O[C@H](CO[C@@H]4O[C@H](CO)[C@@H](O[C@@H]5O[C@@H](C)[C@H](O)[C@@H](O)[C@H]5O)[C@H](O)[C@H]4O)[C@@H](O)[C@H](O)[C@H]3O)CC[C@]3(C)[C@H](CC[C@@H]4[C@@]5(C)CC[C@H](O[C@@H]6OC[C@H](O)[C@H](O)[C@H]6O[C@@H]6O[C@@H](C)[C@H](O)[C@@H](O)[C@H]6O)[C@@](C)(CO)[C@@H]5CC[C@]43C)[C@@H]12 [Anemoside B4] | 11.6 | -22.3 |
| OC[C@@H](O)[C@@H](O)[C@H](O)[C@@H](O)CO [D-Sorbitol] | 9.22 | 6.66 |
| CC1CCC(C(C)C)C(O)C1 (racemic) [DL-Menthol] | -0.02 | -3.84 |
| NC(N)=O | -1.56 | -6.3 |
| CC(C)C(C)C(O)C(O)C(C)C1CCC2C3COC(=O)C4CC(O)C(O)CC4(C)C3CCC12C (centres undefined) [Brassinolide] | 4.78 | -14.7 |
| COc1cc(C(C)=O)ccc1O [Acetovanillone] | 16.7 | 6.03 |
| Cn1c(=O)c2nc[nH]c2n(C)c1=O [Theophylline] | 0.99 | 7.8 |
| CC1=C(/C=C/C(C)=C/C=C/C(C)=C/C=C/C=C(C)/C=C/C=C(C)/C=C/C2=C(C)CCCC2(C)C)C(C)(C)CCC1 [Beta-Carotene] | -16.3 | -6.44 |
| CC[C@H]1OC(=O)[C@H](C)[C@@H](O[C@H]2C[C@@](C)(OC)[C@@H](O)[C@H](C)O2)[C@H](C)[C@@H](O[C@@H]2O[C@H](C)C[C@H](N(C)C)[C@H]2O)[C@](C)(O)C[C@@H](C)[C@@H]2N[C@@H](COCCOC)O[C@H]([C@H]2C)[C@]1(C)O [Dirithromycin] | 1.86 | 7.47 |
| C=CCc1cc(OC)c(OC)c(OC)c1 [Elemicin] | -0.371 | -0.564 |
| O=C(/C=C/c1ccc(O)cc1)c1ccccc1 [4-Hydroxychalcone] | -21.7 | -16.1 |
| COc1cc2c(c(OC)c1OC)-c1c(cc(OC)c(OC)c1OC)CC(C)C(C)C2 (centres undefined) [Schizandrin A] | 12.2 | -1.53 |
| C=CCc1ccc(O)c(OC)c1 [Eugenol] | 9.3 | 4.1 |
| CC(C)(CO)C(O)C(=O)NCCCO (centres undefined) [Panthenol] | 7.73 | -14 |
| CC(C)=C[C@H]1C[C@](C)(O)[C@@H]2[C@H]3CC[C@@H]4[C@@]5(C)CC[C@H](O[C@@H]6OC[C@H](O)[C@H](O[C@@H]7O[C@H](CO)[C@@H](O)[C@H](O)[C@H]7O[C@@H]7OC[C@@H](O)[C@H](O)[C@H]7O)[C@H]6O[C@@H]6O[C@@H](C)[C@H](O)[C@@H](O)[C@H]6O)C(C)(C)[C@@H]5CC[C@@]4(C)[C@@]34CO[C@@]2(C4)O1 [Jujuboside B] | 14.8 | -0.39 |

Part of the list above, bar-delimited:
SMILES | cell growth inhibition ratio (A2780) [%] | cell growth inhibition ratio [1] [%]
CC(C)(O)CC[C@@H](O)[C@](C)(O)[C@H]1CC[C@@]2(O)C3=CC(=O)[C@@H]4C[C@@H](O)[C@@H](O)C[C@]4(C)[C@H]3CC[C@]12C [Ecdysterone] | 5.48 | -10.5
COc1cc2ccc(=O)oc2cc1O [Scopoletin] | 8.38 | 13.2
